PubChem BioAssay AID504804, Drosophila RNAi Screening Center | 2011
The screen tested about 19,000 reagents; this is an unselected part of those that have a named target and a result. Over the whole deposit, 47 (0.25%) are marked active. 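Signals are raw, not normalised; exact z-scores behind calls not deposited; actives needed confirmation, so some wells reaching 2 SD are inactive.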 Reagents against one gene are numbered here. A plus sign joins genes that one reagent is predicted to hit. Reagent sequences are not shown.

- Assay: 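Fly genes whose loss lessens doxorubicin-driven cell death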 (primary screen)
- Cells: Drosophila Kc cells
- Reagent: long dsRNA against Drosophila genes, 0.5 µg dsRNA per well
- Timing: 96 h (48 h knock-down, then 48 h drug)
- Treatment: doxorubicin 5 µg/ml for 48 h, added 48 h after dsRNA
- Detection: 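Viability measured as cellular ATP by luminescence after 48 h knock-down then 48 h doxorubicin at 5 µg/ml; unnormalised plate counts for each replicate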
- Direction: raw ATP luminescence: higher = more viable cells, protection from doxorubicin
- Rule for the call: 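z-score of 2 or more over plate mean in both duplicates, retained only when retests and separate dsRNAs confirm the protection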

no.	Target gene	reagent	raw ATP luminescence, replicate 1	raw ATP luminescence, replicate 2	Outcome
1	Trs20	1	78913	69403	inactive
2	Mkp3	1	28730	20697	inactive
3	Mkp3	2	49160	47680	inactive
4	CG11791	1	44983	38263	inactive
5	sun	1	2.50e5	2.68e5	inactive
6	dmrt11E	1	3.71e5	3.27e5	inactive
7	TTLL15	1	62823	50260	inactive
8	CG31550	1	53247	64737	inactive
9	CG31550	2	55573	28027	inactive
10	Gnmt	1	55777	48357	inactive
11	tara	1	52430	50560	inactive
12	Gr58c	1	65087	61803	inactive
13	Non2	1	71597	55797	inactive
14	Gr58b	1	68053	60827	inactive
15	CG31525	1	58097	64483	inactive
16	CG3777	1	1.50e5	2.15e5	inactive
17	Trp1	1	38707	58630	inactive
18	crp	1	51120	54557	inactive
19	Chd3	1	83953	51080	inactive
20	SmydA-1	1	68073	48590	inactive
21	CG9427	1	55777	18397	inactive
22	CG11703	1	42830	41780	inactive
23	Nepl16	1	68280	57290	inactive
24	CG42557 + CG42558	1	2.12e5	2.25e5	inactive
25	stj	1	46747	44460	inactive
26	CG32772	1	55740	72480	inactive
27	eIF3d2	1	46357	21773	inactive
28	CG4476	1	64030	94527	inactive
29	CG43867	1	2.49e5	2.35e5	inactive
30	CG43867	2	44220	49440	inactive
31	CG43867	3	45760	51500	inactive
32	CG43867	4	40610	45090	inactive
33	CG15894	1	39960	38810	inactive
34	CG15894	2	20090	20080	inactive
35	CG9919	1	3.74e5	3.85e5	inactive
36	GstT1	1	43493	68363	inactive
37	Grl62c	1	1.73e5	1.09e5	inactive
38	bur	1	73040	62210	inactive
39	CG13074	1	61273	61310	inactive
40	CG42564	1	60453	60790	inactive
41	RpS19a	1	1.59e5	1.14e5	inactive
42	TyrRS-m	1	54180	40953	inactive
43	CG32733 (retired record) + CG32797	1	1.53e5	1.65e5	inactive
44	Grl36b	1	2.60e5	2.57e5	inactive
45	ATPsynF	1	54267	56373	inactive
46	smash	1	23263	20170	inactive
47	smash	2	67337	51233	inactive
48	Fkbp59	1	30527	69340	inactive
49	NAT1	1	59037	59390	inactive
50	Mekk1	1	65680	58860	inactive
51	Mekk1	2	50760	57660	inactive
52	Ttc7	1	58610	77607	inactive
53	CG4998	1	78237	69000	inactive
54	Galphao	1	47987	45943	inactive
55	CG6937	1	63920	55990	inactive
56	dod	1	1.92e5	1.99e5	inactive
57	CG11089 + CG31381	1	1.81e5	1.95e5	inactive
58	CG11089 + CG31381	2	33173	43630	inactive
59	Pgm2b	1	66583	69477	inactive
60	Ca-alpha1T	1	53370	46660	inactive
61	Ca-alpha1T	2	46420	47210	inactive
62	Ca-alpha1T	3	48550	41180	inactive
63	Ca-alpha1T	4	42630	44530	inactive
64	lbe	1	40720	46860	inactive
65	CG42471	1	3.51e5	2.66e5	inactive
66	sut1	1	59057	47210	inactive
67	CG32087	1	94903	68793	inactive
68	nAChRalpha5	1	2.41e5	2.67e5	inactive
69	nAChRalpha5	2	23153	60117	inactive
70	nAChRalpha5	3	53427	55987	inactive
71	CG3062	1	42300	51950	inactive
72	Ube4A	1	94427	74227	inactive
73	CG11498	1	55990	58280	inactive
74	nAChRalpha1	1	73780	82560	inactive
75	nAChRalpha1	2	47817	53147	inactive
76	nAChRalpha1	3	2.70e5	2.85e5	inactive
77	nAChRalpha1	4	68890	56450	inactive
78	CG33269	1	69943	63340	inactive
79	Chs2	1	66837	52817	inactive
80	Dbp45A	1	60743	49433	inactive
81	Sp7	1	66910	68927	inactive
82	CG17724	1	66250	57197	inactive
83	SPARC	1	53640	43630	inactive
84	RpL34a	1	86510	66200	inactive

Part of the list above, reformatted:
Mekk1 #2
- raw ATP luminescence, replicate 1: 50760
- raw ATP luminescence, replicate 2: 57660
- Outcome: inactive

Ttc7
- raw ATP luminescence, replicate 1: 58610
- raw ATP luminescence, replicate 2: 77607
- Outcome: inactive

CG4998
- raw ATP luminescence, replicate 1: 78237
- raw ATP luminescence, replicate 2: 69000
- Outcome: inactive

Galphao
- raw ATP luminescence, replicate 1: 47987
- raw ATP luminescence, replicate 2: 45943
- Outcome: inactive

CG6937
- raw ATP luminescence, replicate 1: 63920
- raw ATP luminescence, replicate 2: 55990
- Outcome: inactive

dod
- raw ATP luminescence, replicate 1: 1.92e5
- raw ATP luminescence, replicate 2: 1.99e5
- Outcome: inactive

CG11089 + CG31381 #1
- raw ATP luminescence, replicate 1: 1.81e5
- raw ATP luminescence, replicate 2: 1.95e5
- Outcome: inactive

CG11089 + CG31381 #2
- raw ATP luminescence, replicate 1: 33173
- raw ATP luminescence, replicate 2: 43630
- Outcome: inactive

Pgm2b
- raw ATP luminescence, replicate 1: 66583
- raw ATP luminescence, replicate 2: 69477
- Outcome: inactive

Ca-alpha1T #1
- raw ATP luminescence, replicate 1: 53370
- raw ATP luminescence, replicate 2: 46660
- Outcome: inactive

Ca-alpha1T #2
- raw ATP luminescence, replicate 1: 46420
- raw ATP luminescence, replicate 2: 47210
- Outcome: inactive

Ca-alpha1T #3
- raw ATP luminescence, replicate 1: 48550
- raw ATP luminescence, replicate 2: 41180
- Outcome: inactive

Ca-alpha1T #4
- raw ATP luminescence, replicate 1: 42630
- raw ATP luminescence, replicate 2: 44530
- Outcome: inactive

lbe
- raw ATP luminescence, replicate 1: 40720
- raw ATP luminescence, replicate 2: 46860
- Outcome: inactive
